# From the supplement of paper PMC4604168 (melanoma cell lines)
# The other results are listed elsewhere or left out. Repeats are few or missing, and single values can be far off.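 Imaging used 1,536-well plates; nuclei positive for cleaved PARP by antibody were divided by total DNA-stained nuclei to yield the apoptosis fraction. Doses for screening kept most cells viable, and cell lines differ markedly in resting and induced cleaved-PARP levels.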
# System: COLO800
# Assay: cleaved PARP positive nuclei fraction relative to DMSO control; melanoma cells; higher = more apoptosis
# Details: library dose: low library concentration; 72 h
row,SMILES,cleaved PARP positive nuclei fraction
1,"C[C@@H](N)c1ccc(C(=O)Nc2ccnc3[nH]ccc23)cc1 + O=S(=O)(c1ccccc1)N(CC(F)(F)F)c1ccc(C(O)(C(F)(F)F)C(F)(F)F)cc1 [T0901317] (first compound 0.4 µM, partner dose 1.4 µM)",124%
2,"CN(c1ncccc1CNc1nc(Nc2ccc3c(c2)CC(=O)N3)ncc1C(F)(F)F)S(C)(=O)=O + O=c1cc(-c2cccc3c2Sc2ccccc2S3)oc(N2CCOCC2)c1 [KU55933] (first compound 0.08 µM, partner dose 1 µM)",44.8%
3,"C[C@]1(O)C[C@@H](c2nc(-c3ccc4ccc(-c5ccccc5)nc4c3)c3c(N)nccn32)C1 + CCc1ccc(CCOc2ccc(CC3SC(=O)NC3=O)cc2)nc1 [pioglitazone] (first compound 0.4 µM, partner dose 2 µM)",25.3%
4,"C[C@]1(O)C[C@@H](c2nc(-c3ccc4ccc(-c5ccccc5)nc4c3)c3c(N)nccn32)C1 + COc1ccc2c(c1)CCC1C2CCC2(C)C(NCCCCCCN3C(=O)C=CC3=O)CCC12 [U73122] (first compound 0.4 µM, partner dose 0.4 µM)",131%
5,"C[C@]1(O)C[C@@H](c2nc(-c3ccc4ccc(-c5ccccc5)nc4c3)c3c(N)nccn32)C1 + O=C1NC(=O)/C(=C/c2ccc(-c3ccc(F)cc3O)o2)S1 [AS252424] (first compound 0.4 µM, partner dose 1 µM)",121%
6,"CC1(C)CCC(c2ccc(Cl)cc2)=C(CN2CCN(c3ccc(C(=O)NS(=O)(=O)c4ccc(N[C@H](CCN5CCOCC5)CSc5ccccc5)c(S(=O)(=O)C(F)(F)F)c4)cc3)CC2)C1 + O=C(Nc1cccc(Cl)c1)Nc1ncc(CCNc2ncnc3ccsc23)s1 [SNS314] (first compound 0.4 µM, partner dose 0.0008 µM)",107%
7,"C[C@]1(O)C[C@@H](c2nc(-c3ccc4ccc(-c5ccccc5)nc4c3)c3c(N)nccn32)C1 + O=C(Nc1ccccc1)c1cc([N+](=O)[O-])ccc1Cl [GW9662] (first compound 0.4 µM, partner dose 2 µM)",91.7%
8,"NC1(c2ccc(-c3nc4ccn5c(=O)[nH]nc5c4cc3-c3ccccc3)cc2)CCC1 + Cc1cc(N2CCOCC2)cc2[nH]c(-c3c(NC[C@@H](O)c4cccc(Cl)c4)cc[nH]c3=O)nc12 [BMS536924] (first compound 0.4 µM, partner dose 0.2 µM)",148%
9,"CCN(CC)CCNC(=O)c1c(C)[nH]c(/C=C2\C(=O)Nc3ccc(F)cc32)c1C [sunitinib] + O=c1cc(-c2cccc3c2Sc2ccccc2S3)oc(N2CCOCC2)c1 [KU55933] (first compound 0.4 µM, partner dose 1 µM)",51.5%
10,"CS(=O)(=O)c1ccc(C(=O)Nc2ccc(Cl)c(-c3ccccn3)c2)c(Cl)c1 [vismodegib] + CN(NC(=O)CC(=O)NN(C)C(=S)c1ccccc1)C(=S)c1ccccc1 [STA4783] (first compound 1 µM, partner dose 0.006 µM)",220%
11,"Cn1cnc2c(F)c(Nc3ccc(Br)cc3Cl)c(C(=O)NOCCO)cc21 [selumetinib] + C=CCNC1=C2C[C@@H](C)C[C@H](OC)[C@H](O)[C@@H](C)/C=C(\C)[C@H](OC(N)=O)[C@@H](OC)/C=C\C=C(/C)C(=O)NC(=CC1=O)C2=O [Tanespimycin] (first compound 0.015 µM, partner dose 0.002 µM)",50.3%
12,"Cn1cnc2c(F)c(Nc3ccc(Br)cc3Cl)c(C(=O)NOCCO)cc21 [selumetinib] + O=S(=O)(c1ccccc1)N(CC(F)(F)F)c1ccc(C(O)(C(F)(F)F)C(F)(F)F)cc1 [T0901317] (first compound 0.015 µM, partner dose 1.4 µM)",62.7%
13,"NC1(c2ccc(-c3nc4ccn5c(=O)[nH]nc5c4cc3-c3ccccc3)cc2)CCC1 + O=C(O)C(=O)Nc1sc2c(c1C(=O)O)CCNC2 [TCS401] (first compound 0.4 µM, partner dose 1.66667 µM)",116%
14,"CC1(C)CCC(c2ccc(Cl)cc2)=C(CN2CCN(c3ccc(C(=O)NS(=O)(=O)c4ccc(N[C@H](CCN5CCOCC5)CSc5ccccc5)c(S(=O)(=O)C(F)(F)F)c4)cc3)CC2)C1 + Nc1nc(F)nc2c1ncn2[C@@H]1O[C@H](CO)[C@@H](O)[C@@H]1O [fludarabine] (first compound 0.4 µM, partner dose 0.2 µM)",197%

# Quoted at random: 2 records from the list.
row,SMILES,cleaved PARP positive nuclei fraction
3,"C[C@]1(O)C[C@@H](c2nc(-c3ccc4ccc(-c5ccccc5)nc4c3)c3c(N)nccn32)C1 + CCc1ccc(CCOc2ccc(CC3SC(=O)NC3=O)cc2)nc1 [pioglitazone] (first compound 0.4 µM, partner dose 2 µM)",25.3%
2,"CN(c1ncccc1CNc1nc(Nc2ccc3c(c2)CC(=O)N3)ncc1C(F)(F)F)S(C)(=O)=O + O=c1cc(-c2cccc3c2Sc2ccccc2S3)oc(N2CCOCC2)c1 [KU55933] (first compound 0.08 µM, partner dose 1 µM)",44.8%
